# Assay results reported in patent US9999690B2, “Labeled compounds and methods of imaging, diagnosing cartilage disorders and diseases, and monitoring cartilage health using labeled and unlabeled compounds” (Perosphere Inc., priority 2013, dated 2018).
# Several values for one entry are separate records, joined by “and”; a condition that tells them apart may be missing. Equal values may be shown once. Further values from the same series stand in other lists.
# Columns and labels:
# [1] = Rat blood PK and blood to serum ratio, Group 4; format: in vivo
# Description: (§1) A study was conducted to determine the pharmacokinetics, rates and routes of excretion with mass baseline and tissue distribution of radioactivity, after a single intravenous dose administration of formula XIII (also referred to as [^14C]DAP) was administered to the rats by tail vein intravenous injection at a
# (§2) The study was conducted on 19 male rats divided into 4 groups. The first group of 6 rats was used for blood collection (Group 1); the second group of 4 rats was used for urine, feces, cage rinses and wipes and carcasses collection (Group 2); the third group of 4 rats was used for expired air collection (Group 3); the fourth group of 5 rats was used for terminal blood/serum and tissue distribution by Quantitative Whole-Body Autoradiography (QWBA) (Group 4).
# For Group 4, formula XIII (QWBA was run at 1, 8, 12, 24 and 72 hours post dose. After terminal blood collection, each euthanized animal was frozen in a hexane/dry ice bath and embedded in a 2% carboxymethylcellulose matrix according to MPI Research SOP ADME-112. The embedded carcasses were sectioned according to MPI Research SOP ADME-113 on a Leica CM3600 Cyromacrotome set to maintain −10 to −30° C. At least four fortified quality control standards of known radioactive concentration were placed into the frozen block prior to sectioning and used for section thickness quality control. The quality control standards were sectioned under the same conditions as the specimen. The intrasection and intersection variation of collected sections were determined by analyzing the quality control standards. Section variation must be less than 20% for quantitative analysis. Sections that were approximately 40μm thick were taken in the sagittal plane. Appropriate sections selected at various levels of interest in the block were collected to encompass the following tissues, organs, and biological fluids, where possible: adrenal gland, bladder (urinary) and contents (urine), blood (cardiac), bone, bone marrow, brain, eye, fat (brown), fat (white), heart, kidney, large intestine/cecum and contents, liver, lung, muscle, pancreas, prostate, salivary glands, skin, small intestine and contents, spleen, stomach and contents, testes, thymus, thyroid, mesenteric lymph nodes, and epididymis. A set of sections were mounted, exposed to phosphor imaging screens and scanned using the Storm 860 image acquisition system according to MPI Research SOP ADME-112. Quantification, relative to the calibration standards, were performed by image densitometry using MCID™ image analysis software according to MPI Research SOP ADME-114. A standard curve was constructed from the integrated response (MDC/mm2) and the nominal concentrations of the [^14C]Glucose calibration standards. Relative error should be less than 0.5 for each point on the curve. The concentrations of radioactivity were expressed as μCi/g and were converted to μg or ng-equivalents of DAP per gram of sample (μg- or ng-eq/g) using the specific activity of administered [^14C]DAP dose formulation. A lower limit of quantification (LLOQ) was applied to the data. The LLOQ was determined using the radioactive concentration of the lowest calibration standard used to generate a calibration curve divided by the specific activity of the dose formulation (μCi/ug). Artifacts, such as those produced by dislodged contents of the alimentary canal, were excluded from analysis during image analysis.
# [2] = Rat mass balance recovery (urine, feces, cage rinses and wipes, carcasses, expired air), Groups 2 and 3; format: in vivo; settings: for Mass Balance Recovery, Urine: rat Group 2, IV dose; for Mass Balance Recovery, Expired Air, Trap 2 / Mass Balance Recovery, Expired Air, Trap 3 / Mass Balance Recovery, Expired Air, Trap 2 Subtotal / Mass Balance Recovery, Expired Air, Trap 3 Subtotal: rat Group 3, IV dose
# Description: as §1, §2
# [3] = 0-24 hrs, individual rats 301M-304M
# [4] = 24-48 hrs, individual rats 301M-304M
# [5] = 48-72 hrs, individual rats 301M-304M
structure (smiles),measurement,setting,value
[2H]C1([2H])N(CCCNC(=O)[C@@H](N)CCCNC(=N)N)C([2H])([2H])C([2H])([2H])N(CCCNC(=O)[C@@H](N)CCCNC(=N)N)C1([2H])[2H] [formula XIII],"Rat Blood PK, Blood","[1]; rat Group 4, 1 hrs, rat 401M",1602.10
same,"Rat Blood PK, Serum","[1]; rat Group 4, 1 hrs, rat 401M",3605.20
same,"Rat Blood PK, Blood","[1]; rat Group 4, 8 hrs, rat 402M",147.98
same,"Rat Blood PK, Serum","[1]; rat Group 4, 8 hrs, rat 402M",111.94
same,"Rat Blood PK, Blood","[1]; rat Group 4, 12 hrs, rat 403M",135.75
same,"Rat Blood PK, Serum","[1]; rat Group 4, 12 hrs, rat 403M",73.59
same,"Rat Blood PK, Blood","[1]; rat Group 4, 24 hrs, rat 404M",125.15
same,"Rat Blood PK, Serum","[1]; rat Group 4, 24 hrs, rat 404M",55.21
same,"Rat Blood PK, Blood","[1]; rat Group 4, 72 hrs, rat 405M",29.93
same,"Rat Blood PK, Serum","[1]; rat Group 4, 72 hrs, rat 405M",11.84
same,"Mass Balance Recovery, Urine","[2]; 0-8 hrs, Mean",73.79
same,"Mass Balance Recovery, Urine","[2]; 0-8 hrs, individual rats 201M-204M",71.47 and 75.10 and 71.13 and 77.45
same,"Mass Balance Recovery, Urine","[2]; 8-24 hrs, Mean",9.50
same,"Mass Balance Recovery, Urine","[2]; 8-24 hrs, individual rats 201M-204M",11.56 and 9.15 and 9.65 and 7.62
same,"Mass Balance Recovery, Expired Air, Trap 2","[2]; 0-24 hrs, Mean",0.02
same,"Mass Balance Recovery, Expired Air, Trap 3","[2]; 0-24 hrs, Mean",0.01
same,"Mass Balance Recovery, Expired Air, Trap 2",[2]; [3],0.02
same,"Mass Balance Recovery, Expired Air, Trap 3",[2]; [3],0.01
same,"Mass Balance Recovery, Expired Air, Trap 2","[2]; 24-48 hrs, Mean",0.00
same,"Mass Balance Recovery, Expired Air, Trap 3","[2]; 24-48 hrs, Mean",0.00
same,"Mass Balance Recovery, Expired Air, Trap 2",[2]; [4],0.00
same,"Mass Balance Recovery, Expired Air, Trap 3",[2]; [4],0.00
same,"Mass Balance Recovery, Expired Air, Trap 2","[2]; 48-72 hrs, Mean",0.00
same,"Mass Balance Recovery, Expired Air, Trap 3","[2]; 48-72 hrs, Mean",0.00
same,"Mass Balance Recovery, Expired Air, Trap 2",[2]; [5],0.00
same,"Mass Balance Recovery, Expired Air, Trap 3",[2]; [5],0.00
same,"Mass Balance Recovery, Expired Air, Trap 2 Subtotal",[2]; Mean,0.02
same,"Mass Balance Recovery, Expired Air, Trap 3 Subtotal",[2]; Mean,0.01
same,"Mass Balance Recovery, Expired Air, Trap 2 Subtotal",[2]; individual rats 301M-304M,0.02
same,"Mass Balance Recovery, Expired Air, Trap 3 Subtotal",[2]; individual rats 301M-304M,0.01
